# Test results taken from the supplement of paper PMC8728848.
# The list shows a part of the results.
# Columns and labels:
# Experiment in all cases: glycan array binding signal (z-score within array); higher = stronger binding
# Details in all cases: glycan notation: IUPAC condensed, linker removed
# [1] = target: GlcNAc(b1-3)Gal(b1-3)GalNAc
# Method in brief: (§1)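 Glycan array binding is given as a within-array Z-score, which can be read as non-binding when negative. The arrays, 3228 of them, came from the Consortium for Functional Glycomics database and were retained only where the protein sequence was available. Z-scores were averaged across arrays of the same protein sequence at different concentrations or buffers and across linkers.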
# [2] = target: GlcNAc(b1-3)Gal(b1-4)Glc
# Method in brief: as §1
# [3] = target: GlcNAc(b1-3)Gal(b1-4)GlcNAc
# Method in brief: as §1
# [4] = target: GlcNAc(b1-3)Gal(b1-4)GlcNAc(b1-2)Man(a1-3)[GlcNAc(b1-3)Gal(b1-4)GlcNAc(b1-2)Man(a1-6)]Man(b1-4)GlcNAc(b1-4)GlcNAc
# Method in brief: as §1
# [5] = target: GlcNAc(b1-3)Gal(b1-4)GlcNAc(b1-2)Man(a1-3)[GlcNAc(b1-3)Gal(b1-4)GlcNAc(b1-2)Man(a1-6)]Man(b1-4)GlcNAc(b1-4)[Fuc(a1-6)]GlcNAc
# Method in brief: as §1
# [6] = target: GlcNAc(b1-3)Gal(b1-4)GlcNAc(b1-2)[GlcNAc(b1-3)Gal(b1-4)GlcNAc(b1-6)]Man(a1-6)[GlcNAc(b1-3)Gal(b1-4)GlcNAc(b1-2)Man(a1-3)]Man(b1-4)GlcNAc(b1-4)GlcNAc
# Method in brief: as §1
# [7] = target: GlcNAc(b1-3)Gal(b1-4)GlcNAc(b1-3)Gal(b1-4)GlcNAc
# Method in brief: as §1
# [8] = target: GlcNAc(b1-3)Gal(b1-4)GlcNAc(b1-3)Gal(b1-4)GlcNAc(b1-2)Man(a1-3)[GlcNAc(b1-3)Gal(b1-4)GlcNAc(b1-3)Gal(b1-4)GlcNAc(b1-2)Man(a1-6)]Man(b1-4)GlcNAc(b1-4)GlcNAc
# Method in brief: as §1
# [9] = target: GlcNAc(b1-3)Gal(b1-4)GlcNAc(b1-3)Gal(b1-4)GlcNAc(b1-2)Man(a1-3)[GlcNAc(b1-3)Gal(b1-4)GlcNAc(b1-3)Gal(b1-4)GlcNAc(b1-2)Man(a1-6)]Man(b1-4)GlcNAc(b1-4)[Fuc(a1-6)]GlcNAc
# Method in brief: as §1
# [10] = target: GlcNAc(b1-3)Gal(b1-4)GlcNAc(b1-3)Gal(b1-4)GlcNAc(b1-2)[GlcNAc(b1-3)Gal(b1-4)GlcNAc(b1-3)Gal(b1-4)GlcNAc(b1-6)]Man(a1-6)[GlcNAc(b1-3)Gal(b1-4)GlcNAc(b1-3)Gal(b1-4)GlcNAc(b1-2)Man(a1-3)]Man(b1-4)GlcNAc(b1-4)[Fuc(a1-6)]GlcNAc
# Method in brief: as §1
# [11] = target: GlcNAc(b1-3)Gal(b1-4)GlcNAc(b1-3)Gal(b1-4)GlcNAc(b1-3)Gal(b1-4)GlcNAc(b1-2)Man(a1-3)[GlcNAc(b1-3)Gal(b1-4)GlcNAc(b1-3)Gal(b1-4)GlcNAc(b1-3)Gal(b1-4)GlcNAc(b1-2)Man(a1-6)]Man(b1-4)GlcNAc(b1-4)GlcNAc
# Method in brief: as §1
# [12] = target: GlcNAc(b1-3)Gal(b1-4)GlcNAc(b1-3)Gal(b1-4)GlcNAc(b1-3)Gal(b1-4)GlcNAc(b1-2)Man(a1-3)[GlcNAc(b1-3)Gal(b1-4)GlcNAc(b1-3)Gal(b1-4)GlcNAc(b1-3)Gal(b1-4)GlcNAc(b1-2)Man(a1-6)]Man(b1-4)GlcNAc(b1-4)[Fuc(a1-6)]GlcNAc
# Method in brief: as §1
# [13] = target: GlcNAc(b1-3)Gal(b1-4)GlcNAc(b1-3)Gal(b1-4)GlcNAc(b1-3)Gal(b1-4)GlcNAc(b1-2)[GlcNAc(b1-3)Gal(b1-4)GlcNAc(b1-3)Gal(b1-4)GlcNAc(b1-3)Gal(b1-4)GlcNAc(b1-6)]Man(a1-6)[GlcNAc(b1-3)Gal(b1-4)GlcNAc(b1-3)Gal(b1-4)GlcNAc(b1-3)Gal(b1-4)GlcNAc(b1-2)Man(a1-3)]Man(b1-4)GlcNAc(b1-4)[Fuc(a1-6)]GlcNAc
# Method in brief: as §1
# [14] = target: GlcNAc(b1-3)Gal(b1-4)GlcNAc(b1-3)Gal(b1-4)GlcNAc(b1-3)Gal(b1-4)GlcNAc(b1-3)Gal(b1-4)GlcNAc(b1-2)Man(a1-3)[GlcNAc(b1-3)Gal(b1-4)GlcNAc(b1-3)Gal(b1-4)GlcNAc(b1-3)Gal(b1-4)GlcNAc(b1-3)Gal(b1-4)GlcNAc(b1-2)Man(a1-6)]Man(b1-4)GlcNAc(b1-4)GlcNAc
# Method in brief: as §1
# [15] = target: GlcNAc(b1-3)Gal(b1-4)GlcNAc(b1-3)Gal(b1-4)GlcNAc(b1-3)Gal(b1-4)GlcNAc(b1-3)Gal(b1-4)GlcNAc(b1-2)Man(a1-3)[GlcNAc(b1-3)Gal(b1-4)GlcNAc(b1-3)Gal(b1-4)GlcNAc(b1-3)Gal(b1-4)GlcNAc(b1-3)Gal(b1-4)GlcNAc(b1-2)Man(a1-6)]Man(b1-4)GlcNAc(b1-4)[Fuc(a1-6)]GlcNAc
# Method in brief: as §1
# [16] = target: GlcNAc(b1-3)Gal(b1-4)GlcNAc(b1-3)Gal(b1-4)GlcNAc(b1-3)Gal(b1-4)GlcNAc(b1-3)Gal(b1-4)GlcNAc(b1-2)[GlcNAc(b1-3)Gal(b1-4)GlcNAc(b1-3)Gal(b1-4)GlcNAc(b1-3)Gal(b1-4)GlcNAc(b1-3)Gal(b1-4)GlcNAc(b1-6)]Man(a1-6)[GlcNAc(b1-3)Gal(b1-4)GlcNAc(b1-3)Gal(b1-4)GlcNAc(b1-3)Gal(b1-4)GlcNAc(b1-3)Gal(b1-4)GlcNAc(b1-2)Man(a1-3)]Man(b1-4)GlcNAc(b1-4)[Fuc(a1-6)]GlcNAc
# Method in brief: as §1
# [17] = target: GlcNAc(b1-3)Gal(b1-4)GlcNAc(b1-3)Gal(b1-4)GlcNAc(b1-3)GalNAc
# Method in brief: as §1
# [18] = target: GlcNAc(b1-3)Gal(b1-4)GlcNAc(b1-3)GalNAc
# Method in brief: as §1
# [19] = target: GlcNAc(b1-3)Gal(b1-4)GlcNAc(b1-3)[GlcNAc(b1-3)Gal(b1-4)GlcNAc(b1-3)]GalNAc
# Method in brief: as §1
# [20] = target: GlcNAc(b1-3)Gal(b1-4)GlcNAc(b1-6)[Gal(b1-3)]GalNAc
# Method in brief: as §1
# [21] = target: GlcNAc(b1-3)Gal(b1-4)GlcNAc(b1-6)[GlcNAc(b1-3)Gal(b1-3)]GalNAc
# Method in brief: as §1
# [22] = target: GlcNAc(b1-3)Gal(b1-4)GlcNAc(b1-6)[GlcNAc(b1-3)]Gal(b1-4)GlcNAc
# Method in brief: as §1
# [23] = target: GlcNAc(b1-3)GalNAc
# Method in brief: as §1
# [24] = target: GlcNAc(b1-3)Man
# Method in brief: as §1
# [25] = target: GlcNAc(b1-3)[GlcNAc(b1-4)][GlcNAc(b1-6)]GlcNAc
# Method in brief: as §1
# [26] = target: GlcNAc(b1-3)[GlcNAc(b1-6)]Gal(b1-4)GlcNAc
# Method in brief: as §1
# [27] = target: GlcNAc(b1-3)[GlcNAc(b1-6)]GalNAc
# Method in brief: as §1
# [28] = target: GlcNAc(b1-4)Gal(b1-4)GlcNAc
# Method in brief: as §1
# [29] = target: GlcNAc(b1-4)GlcNAc
# Method in brief: as §1
# [30] = target: GlcNAc(b1-4)GlcNAc(b1-4)GlcNAc
# Method in brief: as §1
# [31] = target: GlcNAc(b1-4)GlcNAc(b1-4)GlcNAc(b1-4)GlcNAc(b1-4)GlcNAc
# Method in brief: as §1
# [32] = target: GlcNAc(b1-4)GlcNAc(b1-4)GlcNAc(b1-4)GlcNAc(b1-4)GlcNAc(b1-4)GlcNAc
# Method in brief: as §1
# [33] = target: GlcNAc(b1-4)[GlcNAc(b1-6)]GalNAc
# Method in brief: as §1
# [34] = target: GlcNAc(b1-6)Gal(b1-4)GlcNAc
# Method in brief: as §1
# [35] = target: GlcNAc(b1-6)GalNAc
# Method in brief: as §1
# [36] = target: GlcNAc6S(b1-3)Gal(b1-4)GlcNAc
# Method in brief: as §1
# [37] = target: Kdn(a2-3)Gal(b1-3)GalNAc
# Method in brief: as §1
binder,measurement,setting,value
"SUN4 (Saccharomyces cerevisiae), P53616 (protein) MGSSHHHHHHSSGLVPRGSHNGSIYGDLADFSGPYEKFEDGTIPCGQFPSGQGVIPISWLDEGGWSGVENTDTSTGGSCKEGSYCSYACQPGMSKTQWPSDQPSDGRSIGGLLCKDGYLYRSNTDTDYLCEWGVDAAYVVSELSNDVAICRTDYPGTENMVIPTYVQAGDSLPLTVVDQDTYYTWQGLKTSAQYYVNNAGISVEDACVWGSSSSGVGNWAPLNFGAGSSDGVAYLSLIPNPNNGNALNFNVKIVAADDSSTVNGECIYENGSFSGGSDGCTVSVTAGKAKFVLYN",glycan array binding signal (z-score),[1],0.821
same,glycan array binding signal (z-score),[2],0.018
same,glycan array binding signal (z-score),[3],0.156
same,glycan array binding signal (z-score),[4],-0.456
same,glycan array binding signal (z-score),[5],1.07
same,glycan array binding signal (z-score),[6],0.82
same,glycan array binding signal (z-score),[7],0.244
same,glycan array binding signal (z-score),[8],0.121
same,glycan array binding signal (z-score),[9],1.34
same,glycan array binding signal (z-score),[10],1.97
same,glycan array binding signal (z-score),[11],0.425
same,glycan array binding signal (z-score),[12],0.823
same,glycan array binding signal (z-score),[13],1.86
same,glycan array binding signal (z-score),[14],0.735
same,glycan array binding signal (z-score),[15],0.211
same,glycan array binding signal (z-score),[16],1.55
same,glycan array binding signal (z-score),[17],0.262
same,glycan array binding signal (z-score),[18],-0.515
same,glycan array binding signal (z-score),[19],1.69
same,glycan array binding signal (z-score),[20],-0.224
same,glycan array binding signal (z-score),[21],0.239
same,glycan array binding signal (z-score),[22],-0.907
same,glycan array binding signal (z-score),[23],-0.748
same,glycan array binding signal (z-score),[24],-0.956
same,glycan array binding signal (z-score),[25],0.467
same,glycan array binding signal (z-score),[26],0.485
same,glycan array binding signal (z-score),[27],0.51
same,glycan array binding signal (z-score),[28],-0.156
same,glycan array binding signal (z-score),[29],-0.72
same,glycan array binding signal (z-score),[30],-0.564
same,glycan array binding signal (z-score),[31],0.226
same,glycan array binding signal (z-score),[32],-0.969
same,glycan array binding signal (z-score),[33],-0.913
same,glycan array binding signal (z-score),[34],-1.3
same,glycan array binding signal (z-score),[35],-0.932
same,glycan array binding signal (z-score),[36],0.604
same,glycan array binding signal (z-score),[37],0.334

# Laid out differently: results already given.
binder	measurement	setting	value
SUN4 (Saccharomyces cerevisiae), P53616 (protein) MGSSHHHHHHSSGLVPRGSHNGSIYGDLADFSGPYEKFEDGTIPCGQFPSGQGVIPISWLDEGGWSGVENTDTSTGGSCKEGSYCSYACQPGMSKTQWPSDQPSDGRSIGGLLCKDGYLYRSNTDTDYLCEWGVDAAYVVSELSNDVAICRTDYPGTENMVIPTYVQAGDSLPLTVVDQDTYYTWQGLKTSAQYYVNNAGISVEDACVWGSSSSGVGNWAPLNFGAGSSDGVAYLSLIPNPNNGNALNFNVKIVAADDSSTVNGECIYENGSFSGGSDGCTVSVTAGKAKFVLYN	glycan array binding signal (z-score)	[30]	-0.564
same	glycan array binding signal (z-score)	[31]	0.226
